Laboratory results taken from PMC5323190.
Results are given in words; binding and its absence hold for the method and conditions named. In cells and extracts the contact can be indirect. Some results given as binding are weak or reduced against the parent protein; the word gives no strength.

Chains of the proteins cited; added tags and fusions are not shown. Residues count along the entry.
UniProt P21860, residues 20-1342: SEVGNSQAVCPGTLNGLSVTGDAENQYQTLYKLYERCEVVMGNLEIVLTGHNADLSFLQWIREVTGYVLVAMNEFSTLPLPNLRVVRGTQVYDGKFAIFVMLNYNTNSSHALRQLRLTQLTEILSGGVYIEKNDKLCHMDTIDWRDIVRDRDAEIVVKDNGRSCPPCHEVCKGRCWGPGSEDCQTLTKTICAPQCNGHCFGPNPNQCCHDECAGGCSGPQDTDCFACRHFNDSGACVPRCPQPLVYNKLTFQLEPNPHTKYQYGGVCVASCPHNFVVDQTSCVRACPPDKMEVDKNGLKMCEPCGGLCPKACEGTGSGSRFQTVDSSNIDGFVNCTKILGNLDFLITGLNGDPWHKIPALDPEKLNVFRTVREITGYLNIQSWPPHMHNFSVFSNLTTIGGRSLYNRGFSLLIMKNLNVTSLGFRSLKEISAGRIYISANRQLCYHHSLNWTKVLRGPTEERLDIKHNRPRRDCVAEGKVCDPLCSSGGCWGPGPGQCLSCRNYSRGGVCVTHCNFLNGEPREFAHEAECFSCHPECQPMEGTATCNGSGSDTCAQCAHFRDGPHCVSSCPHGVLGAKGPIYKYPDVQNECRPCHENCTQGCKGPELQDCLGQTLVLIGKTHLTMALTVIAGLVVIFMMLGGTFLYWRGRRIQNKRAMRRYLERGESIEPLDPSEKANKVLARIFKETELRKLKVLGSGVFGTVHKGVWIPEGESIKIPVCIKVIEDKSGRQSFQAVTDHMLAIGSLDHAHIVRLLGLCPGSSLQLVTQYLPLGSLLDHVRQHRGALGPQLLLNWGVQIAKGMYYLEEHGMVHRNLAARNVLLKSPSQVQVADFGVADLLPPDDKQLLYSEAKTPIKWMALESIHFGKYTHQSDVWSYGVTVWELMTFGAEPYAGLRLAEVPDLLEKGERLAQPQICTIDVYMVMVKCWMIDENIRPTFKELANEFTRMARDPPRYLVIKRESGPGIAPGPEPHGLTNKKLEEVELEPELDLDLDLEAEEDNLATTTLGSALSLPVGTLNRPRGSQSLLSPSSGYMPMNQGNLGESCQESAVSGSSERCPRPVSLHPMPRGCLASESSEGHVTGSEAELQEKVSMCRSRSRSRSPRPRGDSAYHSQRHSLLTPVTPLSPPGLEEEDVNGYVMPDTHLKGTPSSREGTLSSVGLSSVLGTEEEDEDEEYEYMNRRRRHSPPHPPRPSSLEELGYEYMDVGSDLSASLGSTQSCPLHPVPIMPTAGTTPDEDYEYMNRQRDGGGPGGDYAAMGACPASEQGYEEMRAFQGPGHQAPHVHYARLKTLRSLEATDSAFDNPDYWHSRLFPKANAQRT

Assays:
[1] = molecular target: HER3 endogenous in breast cancer cells (T47-D, MCF-7, MDA-MB-453) (human (endogenous in T47-D, MCF-7, MDA-MB-453)) (UniProt P21860); experiment: proximity ligation; in situ PLA with anti-DJ-1 and anti-HER3 antibodies in T47-D and MCF-7 cells grown on chamber slides, starved 16 hours, with or without NRG-1 for 30 min
[2] = molecular target: HER3 endogenous in breast cancer cells (T47-D, MCF-7, MDA-MB-453) (human (endogenous in T47-D, MCF-7, MDA-MB-453)) (UniProt P21860); experiment: co-IP; co-IP and Western blot from lysates of breast cancer cells (T47-D, MCF-7, MDA-MB-453), endogenous proteins; in T47-D and MCF-7 with DJ-1 Ab and with HER3 Ab, cells with or without NRG-1
[3] = molecular target: human HER3 (full length), stably overexpressed in CHO cells (CHO-HER3) (human) (UniProt P21860); experiment: co-IP; co-IP and Western blot from lysates of CHO cells expressing full length human HER3 or HER3/HER2 chimeras; for the chimeras IP with an antibody against the extracellular domains of HER3 (anti-N-HER3)

DJ-1 endogenous in breast cancer cells (T47-D, MCF-7, MDA-MB-453) (from UniProt Q99497 1-189)
binding [1]: binds | binding [2]: binds

B1: DJ-1 in CHO-HER3 cells (protein, UniProt G3IEU2 1-189)
chain: MASKRALVILAKGAEEMETVIPVDVMRRAGIKVTIAGLAGKDPVQCSRDVMICPDTSLEDAKKQGPYDVVVLPGGNLGAQNLSESAVVKEILKEQESRKGLIAAICAGPTALLAHEIGFGSKVTTHPGAKDKMINGGHYSYTESRVERDGLILTSQGPGTSFEFALAIVEALSGKEMADKVKAPLLLKD
binding [3]: binds
